From patent publication US20230284660A1, “Siamenoside I Sweetened Compositions and Uses of the Same” (The Coca-Cola Company, priority 2017, published 2023)

Assay: Blind bench evaluation of sweeteners in six beverage matrices, RebM90 as control
Assay type: in vivo, human
Method: A blind evaluation of the above-named sweeteners was conducted in six (6) beverage (liquid) matrices, including both sparkling and still matrixes. Of the six beverage matrices, four (4) were calorie reduction matrixes and two (2) were diet matrixes. RebM90 served as control. 7-10 internal team members blindly evaluated the samples.

**Q.** With `C[C@H](CC[C@@H](O[C@@H]1O[C@H](CO[C@@H]2O[C@H](CO)[C@@H](O)[C@H](O)[C@H]2O)[C@@H](O)[C@H](O)[C@H]1O[C@@H]1O[C@H](CO)[C@@H](O)[C@H](O)[C@H]1O)C(C)(C)O)[C@H]1CC[C@@]2(C)[C@@H]3CC=C4[C@@H](CC[C@H](O[C@@H]5O[C@H](CO[C@@H]6O[C@H](CO)[C@@H](O)[C@H](O)[C@H]6O)[C@@H](O)[C@H](O)[C@H]5O)C4(C)C)[C@]3(C)[C@H](O)C[C@]12C` [Mogroside V] as the molecule, how does the Comments (Cola type of beverage, one highly sensitive tester) read?
**A.** mogroside V had some monk

**Q.** With `C=C1C[C@@]23CC[C@H]4[C@@](C)(CCC[C@@]4(C)C(=O)O[C@@H]4O[C@H](CO)[C@@H](O)[C@H](O[C@@H]5O[C@H](CO)[C@@H](O)[C@H](O)[C@H]5O)[C@H]4O[C@@H]4O[C@@H](C)[C@H](O)[C@@H](O)[C@H]4O)[C@@H]2CC[C@]1(O[C@@H]1O[C@H](CO)[C@@H](O)[C@H](O[C@@H]2O[C@H](CO)[C@@H](O)[C@H](O)[C@H]2O)[C@H]1O[C@@H]1O[C@H](CO)[C@@H](O)[C@H](O)[C@H]1O)C3` [Rebaudioside N] as the molecule, how does the Comments (Orange Juice (5.3 Brix from juice)) read?
**A.** rebaudioside N performs closest

**Q.** With `C[C@H](CC[C@@H](O[C@@H]1O[C@H](CO)[C@@H](O)[C@H](O)[C@H]1O[C@@H]1O[C@H](CO)[C@@H](O)[C@H](O)[C@H]1O)C(C)(C)O)[C@H]1CC[C@@]2(C)[C@H]3CC=C4[C@@H](CC[C@H](O[C@@H]5O[C@H](CO[C@@H]6O[C@H](CO)[C@@H](O)[C@H](O)[C@H]6O)[C@@H](O)[C@H](O)[C@H]5O)C4(C)C)[C@]3(C)[C@H](O)C[C@]12C` [Mogroside IV] as the molecule, how does the Comments (Lemon Lime Sparkling (70% sugar reduction)) read?
**A.** IV slightly bitter.
